{"source": "PubChem BioAssay AID1259425 (University of Nebraska Medical Center, 2018)", "aim": "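Find knockdowns that reproduce the gene expression pattern seen when KSR1 is lost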 (primary screen)", "cells": "HCT116 human colon cancer cells", "reagent": "siRNA pool against human genes, 50 nM siRNA", "measured": "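After 50 nM siRNA pool, branched-DNA assay measures six marker transcripts per well, minus blank, normalised to the geometric mean of two housekeeping transcripts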", "scale": "BNIP3L mRNA: higher = more BNIP3L transcript after knockdown; NDRG1 mRNA: higher = more NDRG1 transcript after knockdown", "note": "In all, the deposit lists about 14,000 reagents; this is a part drawn at random. Not all columns of the deposit are shown. Reagent sequences are not shown. The record does not give: the time to read-out."}
{"gene": "APBB3", "BNIP3L mRNA, set 1": 0.115, "NDRG1 mRNA, set 1": 0.142}
{"gene": "ATF1", "BNIP3L mRNA, set 1": 0.121, "NDRG1 mRNA, set 1": 0.207}
{"gene": "PHPT1", "BNIP3L mRNA, set 1": 0.0714, "NDRG1 mRNA, set 1": 0.392}
{"gene": "TSC22D3", "BNIP3L mRNA, set 1": 0.124, "NDRG1 mRNA, set 1": 1.12}
{"gene": "ACSS2", "BNIP3L mRNA, set 1": 0.0782, "NDRG1 mRNA, set 1": 0.121}
{"gene": "PTH", "BNIP3L mRNA, set 1": 0.213, "NDRG1 mRNA, set 1": 0.16}

A run of entries from the list above, as a working copy:
{"gene": "ATF1", "BNIP3L mRNA, set 1": 0.121, "NDRG1 mRNA, set 1": 0.207}
{"gene": "PHPT1", "BNIP3L mRNA, set 1": 0.0714, "NDRG1 mRNA, set 1": 0.392}

The results go on.
{"gene": "OAS3", "BNIP3L mRNA, set 1": 0.0822, "NDRG1 mRNA, set 1": 0.278}
{"gene": "OPRD1", "BNIP3L mRNA, set 1": 0.146, "NDRG1 mRNA, set 1": 0.698}
{"gene": "SIAH2", "BNIP3L mRNA, set 1": 0.0837, "NDRG1 mRNA, set 1": 0.0636}
{"gene": "NOC4L", "BNIP3L mRNA, set 1": 0.136, "NDRG1 mRNA, set 1": 0.323}
{"gene": "CDC42BPA", "BNIP3L mRNA, set 1": 0.0443, "NDRG1 mRNA, set 1": 0.235}
{"gene": "BRPF1", "BNIP3L mRNA, set 1": 0.0655, "NDRG1 mRNA, set 1": 0.198}
{"gene": "TMEM257 (retired record)", "BNIP3L mRNA, set 1": 0.161, "NDRG1 mRNA, set 1": 0.77}
{"gene": "AGXT", "BNIP3L mRNA, set 1": 0.066, "NDRG1 mRNA, set 1": 0.243}
{"gene": "LARP7", "BNIP3L mRNA, set 1": 0.31, "NDRG1 mRNA, set 1": 0.583}
{"gene": "CABYR", "BNIP3L mRNA, set 1": 0.093, "NDRG1 mRNA, set 1": 0.0795}
{"gene": "ZBTB4", "BNIP3L mRNA, set 1": 0.13, "NDRG1 mRNA, set 1": 0.307}
{"gene": "KLHL28", "BNIP3L mRNA, set 1": 0.148, "NDRG1 mRNA, set 1": 0.297}
{"gene": "CEMIP", "BNIP3L mRNA, set 1": 0.153, "NDRG1 mRNA, set 1": 0.572}
